Results reported in patent US8734776B2 (ZymoGenetics, Inc., priority 2003, dated 2014).
Some entries share one result that the patent states for a list of compounds.

B1: IL-28A: human IL-28A, previously designated zcyto20, SEQ ID NO:2 (protein, listed as Homo sapiens)
chain: MKLDMTGDCTPVLVLMAAVLTVTGAVPVARLHGALPDARGCHIAQFKSLSPQELQAFKRAKDALEESLLLKDCRCHSRLFPRTWDLRQLQVRERPMALEAELALTLKVLEATADTDPALVDVLDQPLHTLHHILSQFRACIQPQPTAGPRTRGRLHHWLYRLQEAPKKESPGCLEASVTFNLFRLLTRDLNCVASGDLCV
modifications: SIGNAL (1)...(25)
B2: IL-29: human IL-29, previously designated zcyto21, SEQ ID NO:4 (protein, listed as Homo sapiens)
chain: MAAAWTVVLVTLVLGLAVAGPVPTSKPTTTGKGCHIGRFKSLSPQELASFKKARDALEESLKLKNWSCSSPVFPGNWDLRLLQVRERPVALEAELALTLKVLEAAAGPALEDVLDQPLHTLHHILSQLQACIQPQPTAGPRPRGRLHHWLHRLQEAPKKESAGCLEASVTFNLFRLLTRDLKYVADGNLCLRTSTHPEST
modifications: SIGNAL (1)...(19)

System: HBV
Test: HBV replication in WT10 cells (TaqMan PCR extracellular HBV DNA)
Format: cell-based, human

Molecule	IC50 HepB viral replication [µg/mL]
B1	< 0.032
B2	< 0.032
